These are yes or no findings as the source states them, for the method shown. In cells and extracts the contact can be indirect. Some entries that bind do so weakly or less than the wild type. For some assays here: Where a sequence is shown, tags or fusion partners need not be part of it.
Legend:
[1] = target: SENP3, endogenous (mouse (endogenous in TCMK1)) (UniProt Q9EP97); experiment: co-IP; endogenous proteins in TCMK1 cell lysates, cells untreated or after hypoxia/reoxygenation (H/R: 3 h hypoxia, 24 h reoxygenation); lysates with primary antibody or IgG and protein A/G beads overnight at 4 °C, immunoblot
SENP3-WT-HIS = SENP3-WT-HIS (UniProt Q9EP97); experiment: co-IP; HEK-293T cells transfected for 48 h with vectors for FLAG-ASS1 (WT or 2KR), HA-UBC9, MYC-SUMO2/3 and His-SENP3; lysates with primary antibody or IgG and protein A/G beads overnight at 4 °C, immunoblot

Sequences of proteins named here, by UniProt entry; tags and fusion partners are left off.
UniProt Q9EP97: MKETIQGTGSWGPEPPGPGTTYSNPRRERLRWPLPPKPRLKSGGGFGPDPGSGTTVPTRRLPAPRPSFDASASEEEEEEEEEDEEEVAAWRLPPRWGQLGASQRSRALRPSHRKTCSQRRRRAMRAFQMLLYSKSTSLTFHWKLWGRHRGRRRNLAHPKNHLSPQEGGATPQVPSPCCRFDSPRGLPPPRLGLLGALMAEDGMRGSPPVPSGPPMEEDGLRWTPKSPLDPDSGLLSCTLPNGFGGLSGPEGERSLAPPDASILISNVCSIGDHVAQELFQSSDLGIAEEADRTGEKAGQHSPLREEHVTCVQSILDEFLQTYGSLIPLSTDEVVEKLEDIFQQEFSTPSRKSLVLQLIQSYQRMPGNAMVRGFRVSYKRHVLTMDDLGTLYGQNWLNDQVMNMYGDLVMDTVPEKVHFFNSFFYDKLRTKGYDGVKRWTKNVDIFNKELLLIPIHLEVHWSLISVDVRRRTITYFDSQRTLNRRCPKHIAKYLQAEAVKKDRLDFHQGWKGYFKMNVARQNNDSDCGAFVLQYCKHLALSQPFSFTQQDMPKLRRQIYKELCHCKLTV

Binder	binding [1]	binding (SENP3-WT-HIS)
Arginosuccinate synthase 1 (ASS1), endogenous (protein, UniProt P16460 1-412) MSSKGSVVLAYSGGLDTSCILVWLKEQGYDVIAYLANIGQKEDFEEARKKALKLGAKKVFIEDVSKEFVEEFIWPAVQSSALYEDRYLLGTSLARPCIARRQVEIAQREGAKYVSHGATGKGNDQVRFELTCYSLAPQIKVIAPWRMPEFYNRFKGRNDLMEYAKQHGIPIPVTPKSPWSMDENLMHISYEAGILENPKNQAPPGLYTKTQDPAKAPNSPDVLEIEFKKGVPVKVTNIKDGTTRTTSLELFMYLNEVAGKHGVGRIDIVENRFIGMKSRGIYETPAGTILYHAHLDIEAFTMDREVRKIKQGLGLKFAELVYTGFWHSPECEFVRHCIQKSQERVEGKVQVSVFKGQVYILGRESPLSLYNEELVSMNVQGDYEPIDATGFININSLRLKEYHRLQSKVTAK	binds	
ASS1-WT-FLAG (protein, UniProt P16460 1-412) MSSKGSVVLAYSGGLDTSCILVWLKEQGYDVIAYLANIGQKEDFEEARKKALKLGAKKVFIEDVSKEFVEEFIWPAVQSSALYEDRYLLGTSLARPCIARRQVEIAQREGAKYVSHGATGKGNDQVRFELTCYSLAPQIKVIAPWRMPEFYNRFKGRNDLMEYAKQHGIPIPVTPKSPWSMDENLMHISYEAGILENPKNQAPPGLYTKTQDPAKAPNSPDVLEIEFKKGVPVKVTNIKDGTTRTTSLELFMYLNEVAGKHGVGRIDIVENRFIGMKSRGIYETPAGTILYHAHLDIEAFTMDREVRKIKQGLGLKFAELVYTGFWHSPECEFVRHCIQKSQERVEGKVQVSVFKGQVYILGRESPLSLYNEELVSMNVQGDYEPIDATGFININSLRLKEYHRLQSKVTAK		binds

From PMC12827350
